Data published in patent US20200179450A1.
Results are given in words; binding and its absence hold for the method and conditions named. Some entries that bind do so weakly or less than the wild type.

Protein sequences, listed by entry. Tags and fused reporters are not part of them. Lines headed by an entry give the natural chain unless they say otherwise; changes in a name come on top. Residues count along the entry.
UniProt P06127, residues 25-372: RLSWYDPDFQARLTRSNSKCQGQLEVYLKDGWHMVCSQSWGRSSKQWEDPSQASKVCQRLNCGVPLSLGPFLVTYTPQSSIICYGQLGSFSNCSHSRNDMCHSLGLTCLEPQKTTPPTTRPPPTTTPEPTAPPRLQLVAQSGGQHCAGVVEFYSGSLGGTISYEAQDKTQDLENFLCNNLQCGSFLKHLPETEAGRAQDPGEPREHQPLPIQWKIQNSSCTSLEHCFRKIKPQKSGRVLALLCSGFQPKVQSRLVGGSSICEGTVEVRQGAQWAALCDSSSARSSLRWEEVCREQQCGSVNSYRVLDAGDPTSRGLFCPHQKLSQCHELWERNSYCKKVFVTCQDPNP
UniProt P10747: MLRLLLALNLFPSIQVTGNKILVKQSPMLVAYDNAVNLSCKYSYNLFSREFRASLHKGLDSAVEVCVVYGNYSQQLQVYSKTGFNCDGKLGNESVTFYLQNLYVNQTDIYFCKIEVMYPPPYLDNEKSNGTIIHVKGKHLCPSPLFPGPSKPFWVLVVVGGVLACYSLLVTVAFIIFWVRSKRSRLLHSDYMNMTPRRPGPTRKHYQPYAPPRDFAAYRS

Target: CD5-Fc fusion protein (UniProt P06127)
Assay: flow cytometry; CAR-transduced Jurkat T cells stained with CD5-Fc, then anti-IgG Fc-PE

CD5-scFv-CAR (from UniProt P10747 153-220; P20963 52-164)
binding: binds
